± gives the standard deviation of the averaged measurements. This is one part of the list. Repeats are few or missing, and single values can be far off.
Each molecule was assayed on RAW 264.7 macrophages infected with S. aureus JE2-lux (assay: host macrophage viability (CellTiter-Fluor) relative to DMSO vehicle; higher = more viable host cells). Details: 10 µM; treatment time 4 h; gentamicin 50 µg/ml.
`Cc1nn(-c2ccccc2)c2ncc(C(=O)Nc3ccc4c(c3)OCCO4)c(Cl)c12` was tested, and the host macrophage viability was 114%. `N#CC1=C(N)Oc2c(oc(CO)cc2=O)C12C(=O)N(Cc1ccccc1)c1ccccc12` (stereo not drawn) was tested, and the host macrophage viability was 127%. For `CCOc1ccc(CN2C(=O)c3ccccc3C2C(=O)NCCCOC(C)C)cc1` (stereo not drawn), the host macrophage viability was 119%. Molecule `CC(=O)Nc1ccc(Nc2ncnc3c2c(C)c(C)n3-c2ccccc2)cc1` has a host macrophage viability of 113%. In the case of `Cc1ccc(Cl)cc1NS(=O)(=O)c1cc(-c2nc(C)c(C)s2)cs1`, the host macrophage viability is reported as 113%. `Cc1ccc(-c2nnc3ccc(SCC(=O)Nc4cc(C)on4)nn23)cc1` was tested, and the host macrophage viability was 104 ± 14%. Work on `CCn1/c(=N/C(=O)CSCC(=O)Nc2nccs2)sc2ccccc21` yielded a host macrophage viability of 105%. `O=C(CN1C(=O)CC(c2ccco2)Sc2ccccc21)Nc1ccccc1` (stereo not drawn) was tested, and the host macrophage viability was 121 ± 20%. In the case of `CCOC(=O)Nc1ccc2c(c1)C(=O)Nc1cc(C)ccc1O2`, the host macrophage viability is reported as 118%. In the case of `CCOc1ccc2nc(NC(=O)CN3C(=O)c4ccccc4C3=O)sc2c1`, the host macrophage viability is reported as 106 ± 6%. In the case of `CN1CCc2c(sc(NC(=O)c3cc(-c4ccccc4)nc4ccccc34)c2C(N)=O)C1`, the host macrophage viability is reported as 127%. Work on `CC1(C)Cc2c(sc(NC(=O)CN3C(=O)CCC3=O)c2C(N)=O)C(C)(C)N1` yielded a host macrophage viability of 125%. With `O=C(/C=C/c1cccs1)Nc1nc2c(s1)CSc1ccccc1-2` the host macrophage viability was 92.4%. With `CC1CN(CC(=O)Nc2ccc3[nH]c(CN4CCCCC4)nc3c2)CC(C)O1` (stereo not drawn) the host macrophage viability was 127%. Work on `Cc1cccc(CNc2nc(N3CCN(C)CC3)nc3c2cnn3C)c1` yielded a host macrophage viability of 106%. Work on `CCOc1ccc(C(=O)Nc2cc(=O)n(C)c(=O)n2C)cc1` yielded a host macrophage viability of 113%. For `Cc1cc2c(=O)n(CC(=O)Nc3cnn(Cc4ccc(F)cc4)c3)cnc2s1`, the host macrophage viability was 111%. `CC(NC(=O)C(C)N1C(=O)NC(C)(C)C1=O)c1ccc2c(c1)CCC2` (stereo not drawn) was tested, and the host macrophage viability was 120%. `O=C1C2C(c3ccc(O)cc3)NN(Cc3ccccc3)C2C(=O)N1C1CCCCC1` (stereo not drawn) gave a host macrophage viability of 142%. `O=C(Nc1nnc(Cc2cccc(F)c2)s1)c1cc2c([nH]c1=O)CCCCC2` was tested, and the host macrophage viability was 133%. Molecule `CCN(c1ccccc1)S(=O)(=O)c1ccc(C(=O)Nc2ccc3ncsc3c2)cc1` has a host macrophage viability of 105%. In the case of `CCOc1cccc2c1OC(c1ccncc1)N1N=C(c3cccc(O)c3)CC21` (stereo not drawn), the host macrophage viability is reported as 129%. For `COc1ccc(C)c2s/c(=N\C(=O)C3COc4ccccc4O3)n(C)c12` (stereo not drawn), the host macrophage viability was 99.3%. `COc1ccc2nc(Nc3sc4c(c3C(N)=O)CCC(C)C4)sc2c1` (stereo not drawn) gave a host macrophage viability of 109 ± 3%. With `CSC1=C(C#N)C(c2ccncc2)C(C(=O)Nc2ccccc2)=C(C)N1` (stereo not drawn) the host macrophage viability was 108%. `O=C(CCCn1c(=S)[nH]c2cc3c(cc2c1=O)OCO3)N1CCN(C(=O)c2ccco2)CC1` showed a host macrophage viability of 123%. `Cn1c(=O)n(CCCO)c(=O)c2c1nc1n(-c3ccccc3F)c(-c3ccccc3)cn21` showed a host macrophage viability of 107%. `Cc1cccc(NC(=O)C(=O)NCCCO)c1C` was tested, and the host macrophage viability was 96.7%.

From the supplement of paper PMC12578635
